These are yes or no findings as the source states them, for the method shown. Binding seen in cells or lysates may run through a third protein. A result given as binding can be weak or reduced; the word gives no strength.
Target: myc-tagged RicA (Brucella abortus) (UniProt Q2YQG1)
Test: co-IP; […] (20 mM Tris-HCl pH 7.5, 150 mM NaCl, 2 mM MgCl2, 0.5% Triton X-100); […]

The chains behind the UniProt entries cited, without tags or fusion partners. Where a name states a change or a piece, a line headed by the entry shows the natural chain unless it says otherwise.
UniProt Q2YQG1: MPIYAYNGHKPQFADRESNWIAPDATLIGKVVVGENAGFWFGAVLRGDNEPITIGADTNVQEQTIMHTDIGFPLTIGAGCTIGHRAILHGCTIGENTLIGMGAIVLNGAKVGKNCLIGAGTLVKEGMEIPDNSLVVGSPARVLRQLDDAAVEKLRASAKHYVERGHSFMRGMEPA
UniProt P61019: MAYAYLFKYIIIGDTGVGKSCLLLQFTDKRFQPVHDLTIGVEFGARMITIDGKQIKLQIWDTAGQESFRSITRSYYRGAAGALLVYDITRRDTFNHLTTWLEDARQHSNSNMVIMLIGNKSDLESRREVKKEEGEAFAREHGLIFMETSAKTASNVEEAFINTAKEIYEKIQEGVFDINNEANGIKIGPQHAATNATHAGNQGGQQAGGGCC

## GFP-tagged Rab2a, wild type (from UniProt P61019 1-212)
  binding: binds
